# Measurements reported in PubChem BioAssay AID1508597 (Cure First, 2020)
# Purpose: 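Genes whose silencing sensitises or protects ovarian cancer cells against rucaparib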 (primary screen)
# System: human ovarian carcinoma lines grown from tumours: OCI-P5x (papillary serous) and OCI-C5x (clear cell)
# Reagent: siRNA pool against human genes, 1.25 pmol siRNA per well
# Timing: 72 h or 96 h, depending on the cell culture
# Treatment: rucaparib 20 µM (about IC30) or vehicle, present until read-out
# Rucaparib or vehicle: Vehicle
# Cell line: OCI-P5x (serous)
# Measured: 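ATP luminescence measured at 72 or 96 h according to the culture, then normalised and expressed as percent viability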
# Direction: viability, normalised: higher = more viable cells remaining
# Call rule: 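a well counts as a hit if its normalised viability is under 80 percent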
# Calls: active = viability under 80%; inactive = viability 80% or more
# This is a random part of the about 2,100 reagents, in one setting of the screen. 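Calls flag viability under 80% in either arm, not effects specific to rucaparib; the reference for percent is not stated.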 A reagent listed more than once was tested more than once; the source does not tell the runs apart. Reagent sequences are not shown. Not given: the 100% reference.
Target gene,technical replicate,"viability, normalised (%)",activity call
PRMT1,1,72.4,active
PRMT1,2,74.9,active
PRMT1,3,97.3,inactive
DMTF1,1,63.2,active
DMTF1,2,69.4,active
DMTF1,3,66.4,active
SSBP1,1,107,inactive
SSBP1,2,88.2,inactive
SSBP1,3,98.1,inactive
KDM8,1,83.8,inactive
KDM8,2,93.3,inactive
KDM8,3,93.7,inactive
CBX4,1,85.1,inactive
CBX4,2,90,inactive
CBX4,3,88,inactive
KDM2A,1,67.5,active
KDM2A,2,92.2,inactive
KDM2A,3,80.9,inactive
SGF29,1,84.4,inactive
SGF29,2,66,active
SGF29,3,86.1,inactive

Continued, starting with the last 3 of the part before.
Target gene,technical replicate,"viability, normalised (%)",activity call
SGF29,1,84.4,inactive
SGF29,2,66,active
SGF29,3,86.1,inactive
ANKK1,1,69.4,active
ANKK1,2,74.8,active
ANKK1,3,47.6,active
NADK,1,68.2,active
NADK,2,48.7,active
NADK,3,67,active
DNAJC5,1,93.1,inactive
DNAJC5,2,88.3,inactive
DNAJC5,3,96.1,inactive
MRE11,1,76.8,active
MRE11,2,79.1,active
MRE11,3,90.4,inactive
NUP98,1,29.4,active
NUP98,1,61.4,active
NUP98,2,57.8,active
NUP98,2,40.7,active
NUP98,3,51.6,active
NUP98,3,60.8,active
